For 1 molecule, binding results are on record in PMC4267844, “The Lifestyle Switch Protein Bd0108 of Bdellovibrio bacteriovorus Is an Intrinsically Disordered Protein” (PLoS ONE, 2014).

The target of assay [1] is Bd0108 (Bdellovibrio bacteriovorus HD100) (UniProt Q6MRH6). The assay is described as follows: SEC; SD75 column; 20 mM Tris pH 7.0 100 mM NaCl 2 mM β-ME; late-eluting species re-run stays a single species; both purified.
For assay [2] the target is unchanged. The assay is described as follows: dynamic light scattering; late-eluting gel filtration peak of Bd0108 at 2 mg/mL; 20 mM Tris pH 7.0 100 mM NaCl 2 mM β-ME; read together with circular dichroism; both purified. For orientation: SEC sorts molecules by how far they enter the pores of the column.

Results are given in words; binding and its absence hold for the method and conditions named.

B1: Bd0108 (natural protein, Bdellovibrio bacteriovorus HD100)
chain: SHMADENANRPVNPGEDPNEAFRSTPFEATTSALGDCRECIAYRTGATTGKGSRRHDDTVSREIKGSSATPGGSEKAGTGRQ
modifications: disulfide between C56 and C59; 15N-labelled in the NMR titration
notes: tripeptide left on the mature N-terminus after thrombin cleavage of the His tag (cloning artefact); Bd0108 of Bdellovibrio bacteriovorus HD100, a 101 amino acid protein with an N-terminal Sec signal peptide; amino acids 23-101 cloned into pET28b; The assigned cloning artefacts (residues 21 and 22) in the titration point to this cytoplasmic construct and not to the PelB construct; also called …
Take B1: the binding result was “no binding” in assay [1] and “no binding (tested: 2 mg/mL)” in assay [2].
